# This is one part of the list.
# Chains of the proteins cited; added tags and fusions are not shown. Lines headed by an entry give the natural chain unless they say otherwise; changes in a name come on top.
# UniProt Q15029: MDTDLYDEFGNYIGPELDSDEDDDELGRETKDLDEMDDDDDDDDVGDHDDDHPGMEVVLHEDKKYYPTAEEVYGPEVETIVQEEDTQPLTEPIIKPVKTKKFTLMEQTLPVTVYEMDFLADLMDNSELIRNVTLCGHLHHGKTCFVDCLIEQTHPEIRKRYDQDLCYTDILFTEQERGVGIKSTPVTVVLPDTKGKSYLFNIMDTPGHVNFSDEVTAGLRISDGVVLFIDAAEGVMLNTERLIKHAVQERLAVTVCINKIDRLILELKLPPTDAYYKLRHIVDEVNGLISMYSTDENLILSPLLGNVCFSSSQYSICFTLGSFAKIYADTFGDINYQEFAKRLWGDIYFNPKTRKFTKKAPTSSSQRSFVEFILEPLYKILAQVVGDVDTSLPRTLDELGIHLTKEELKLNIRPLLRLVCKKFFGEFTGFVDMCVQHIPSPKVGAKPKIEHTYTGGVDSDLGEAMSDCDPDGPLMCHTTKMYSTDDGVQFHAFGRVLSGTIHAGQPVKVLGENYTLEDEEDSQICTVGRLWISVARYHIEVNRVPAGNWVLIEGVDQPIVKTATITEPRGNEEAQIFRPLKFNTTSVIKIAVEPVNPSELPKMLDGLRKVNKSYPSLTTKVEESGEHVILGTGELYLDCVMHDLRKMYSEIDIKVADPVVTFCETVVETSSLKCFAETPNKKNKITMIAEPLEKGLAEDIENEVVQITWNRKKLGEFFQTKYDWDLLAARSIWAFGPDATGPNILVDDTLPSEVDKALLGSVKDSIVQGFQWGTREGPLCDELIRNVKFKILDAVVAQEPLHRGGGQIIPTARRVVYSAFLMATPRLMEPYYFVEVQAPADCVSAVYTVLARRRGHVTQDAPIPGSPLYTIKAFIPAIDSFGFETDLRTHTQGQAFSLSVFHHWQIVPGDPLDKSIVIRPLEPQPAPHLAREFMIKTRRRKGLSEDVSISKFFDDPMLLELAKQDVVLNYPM
# UniProt P41214: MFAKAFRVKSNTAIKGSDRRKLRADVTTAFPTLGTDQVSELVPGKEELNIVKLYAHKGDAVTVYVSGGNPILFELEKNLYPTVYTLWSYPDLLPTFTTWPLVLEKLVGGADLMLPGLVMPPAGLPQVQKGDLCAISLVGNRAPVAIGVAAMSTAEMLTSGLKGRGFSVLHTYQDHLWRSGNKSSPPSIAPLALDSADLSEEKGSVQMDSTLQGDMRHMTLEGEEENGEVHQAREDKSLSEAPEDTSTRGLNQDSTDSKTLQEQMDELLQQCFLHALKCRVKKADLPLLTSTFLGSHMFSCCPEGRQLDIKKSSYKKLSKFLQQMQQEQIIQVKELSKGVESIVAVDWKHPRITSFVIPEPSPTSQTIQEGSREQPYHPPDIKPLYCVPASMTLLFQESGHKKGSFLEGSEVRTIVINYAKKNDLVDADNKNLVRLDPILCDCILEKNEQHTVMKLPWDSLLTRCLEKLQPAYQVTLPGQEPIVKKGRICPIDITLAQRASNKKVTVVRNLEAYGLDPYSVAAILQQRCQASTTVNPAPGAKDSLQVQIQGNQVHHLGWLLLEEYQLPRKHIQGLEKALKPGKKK
# UniProt O75521: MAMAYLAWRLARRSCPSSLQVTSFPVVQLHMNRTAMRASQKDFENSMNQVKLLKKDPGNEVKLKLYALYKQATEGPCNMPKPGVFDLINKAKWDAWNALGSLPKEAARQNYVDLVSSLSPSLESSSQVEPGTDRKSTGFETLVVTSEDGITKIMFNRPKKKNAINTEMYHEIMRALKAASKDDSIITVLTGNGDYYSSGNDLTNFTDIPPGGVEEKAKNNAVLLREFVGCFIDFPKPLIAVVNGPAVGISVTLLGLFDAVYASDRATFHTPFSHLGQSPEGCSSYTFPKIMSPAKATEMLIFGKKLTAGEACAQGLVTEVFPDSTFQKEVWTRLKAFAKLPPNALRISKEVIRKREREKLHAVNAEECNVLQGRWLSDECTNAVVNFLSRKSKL
# UniProt Q9H9B1: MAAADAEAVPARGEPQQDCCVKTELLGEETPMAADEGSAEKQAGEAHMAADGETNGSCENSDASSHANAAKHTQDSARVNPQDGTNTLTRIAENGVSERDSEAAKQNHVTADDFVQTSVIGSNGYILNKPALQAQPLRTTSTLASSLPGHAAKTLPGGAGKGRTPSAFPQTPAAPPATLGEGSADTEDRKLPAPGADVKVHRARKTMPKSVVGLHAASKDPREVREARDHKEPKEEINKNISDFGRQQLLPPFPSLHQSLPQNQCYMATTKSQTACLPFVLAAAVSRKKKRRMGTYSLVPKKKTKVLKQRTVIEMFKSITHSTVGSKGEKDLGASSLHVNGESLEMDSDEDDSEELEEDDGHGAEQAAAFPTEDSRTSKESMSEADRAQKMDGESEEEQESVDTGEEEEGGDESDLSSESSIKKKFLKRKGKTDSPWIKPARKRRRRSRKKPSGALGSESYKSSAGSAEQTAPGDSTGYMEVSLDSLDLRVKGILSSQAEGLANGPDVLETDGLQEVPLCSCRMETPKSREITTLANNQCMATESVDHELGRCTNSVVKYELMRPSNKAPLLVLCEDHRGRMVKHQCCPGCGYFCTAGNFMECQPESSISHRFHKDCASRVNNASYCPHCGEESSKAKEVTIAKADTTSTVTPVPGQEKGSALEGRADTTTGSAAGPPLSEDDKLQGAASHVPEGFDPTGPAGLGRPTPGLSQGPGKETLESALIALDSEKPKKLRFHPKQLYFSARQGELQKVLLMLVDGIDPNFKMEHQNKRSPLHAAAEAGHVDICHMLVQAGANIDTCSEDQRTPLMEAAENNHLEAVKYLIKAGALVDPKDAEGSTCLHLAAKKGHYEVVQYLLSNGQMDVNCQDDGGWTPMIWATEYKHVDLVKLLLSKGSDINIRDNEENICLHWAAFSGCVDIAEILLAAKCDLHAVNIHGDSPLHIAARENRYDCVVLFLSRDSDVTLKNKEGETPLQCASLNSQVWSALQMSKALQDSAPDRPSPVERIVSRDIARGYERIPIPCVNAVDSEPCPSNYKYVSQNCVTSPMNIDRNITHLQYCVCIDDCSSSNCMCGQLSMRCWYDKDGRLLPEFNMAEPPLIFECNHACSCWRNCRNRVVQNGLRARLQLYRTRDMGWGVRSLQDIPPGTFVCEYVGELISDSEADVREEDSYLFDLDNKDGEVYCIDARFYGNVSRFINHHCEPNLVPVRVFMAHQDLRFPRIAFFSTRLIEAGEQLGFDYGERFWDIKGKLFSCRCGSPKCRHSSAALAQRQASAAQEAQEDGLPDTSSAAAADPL
# UniProt Q96KQ7: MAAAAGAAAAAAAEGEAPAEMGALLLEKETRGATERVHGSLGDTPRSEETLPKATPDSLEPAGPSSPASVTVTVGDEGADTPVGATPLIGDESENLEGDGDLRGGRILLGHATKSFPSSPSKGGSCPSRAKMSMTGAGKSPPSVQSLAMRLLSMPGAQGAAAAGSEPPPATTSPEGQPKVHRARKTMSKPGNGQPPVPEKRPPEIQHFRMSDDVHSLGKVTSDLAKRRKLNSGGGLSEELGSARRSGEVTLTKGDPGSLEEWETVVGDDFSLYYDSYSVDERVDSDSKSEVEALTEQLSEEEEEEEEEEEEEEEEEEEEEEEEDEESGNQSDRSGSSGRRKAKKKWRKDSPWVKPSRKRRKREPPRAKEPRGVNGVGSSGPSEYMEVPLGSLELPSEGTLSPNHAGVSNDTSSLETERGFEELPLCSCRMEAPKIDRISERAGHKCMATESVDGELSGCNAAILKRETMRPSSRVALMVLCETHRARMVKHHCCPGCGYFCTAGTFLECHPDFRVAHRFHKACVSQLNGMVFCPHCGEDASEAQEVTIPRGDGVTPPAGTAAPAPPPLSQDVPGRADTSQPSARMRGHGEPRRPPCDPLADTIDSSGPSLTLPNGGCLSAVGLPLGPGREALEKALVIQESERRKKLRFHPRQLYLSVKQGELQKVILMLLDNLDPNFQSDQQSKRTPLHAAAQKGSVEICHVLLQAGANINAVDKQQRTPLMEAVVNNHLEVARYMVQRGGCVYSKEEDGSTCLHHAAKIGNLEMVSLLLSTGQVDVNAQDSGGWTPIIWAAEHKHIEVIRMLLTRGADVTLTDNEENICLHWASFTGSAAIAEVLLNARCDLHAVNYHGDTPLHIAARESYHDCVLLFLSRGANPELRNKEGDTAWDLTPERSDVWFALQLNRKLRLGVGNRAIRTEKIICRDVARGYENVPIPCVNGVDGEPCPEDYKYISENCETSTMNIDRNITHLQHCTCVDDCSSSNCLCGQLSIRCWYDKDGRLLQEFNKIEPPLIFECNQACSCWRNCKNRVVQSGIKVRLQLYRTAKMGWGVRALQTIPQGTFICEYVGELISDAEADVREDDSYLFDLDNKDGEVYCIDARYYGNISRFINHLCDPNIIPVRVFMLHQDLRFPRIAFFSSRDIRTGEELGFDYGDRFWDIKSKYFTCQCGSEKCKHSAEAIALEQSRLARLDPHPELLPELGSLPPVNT
# UniProt Q5VYK3, whole entry, looked up: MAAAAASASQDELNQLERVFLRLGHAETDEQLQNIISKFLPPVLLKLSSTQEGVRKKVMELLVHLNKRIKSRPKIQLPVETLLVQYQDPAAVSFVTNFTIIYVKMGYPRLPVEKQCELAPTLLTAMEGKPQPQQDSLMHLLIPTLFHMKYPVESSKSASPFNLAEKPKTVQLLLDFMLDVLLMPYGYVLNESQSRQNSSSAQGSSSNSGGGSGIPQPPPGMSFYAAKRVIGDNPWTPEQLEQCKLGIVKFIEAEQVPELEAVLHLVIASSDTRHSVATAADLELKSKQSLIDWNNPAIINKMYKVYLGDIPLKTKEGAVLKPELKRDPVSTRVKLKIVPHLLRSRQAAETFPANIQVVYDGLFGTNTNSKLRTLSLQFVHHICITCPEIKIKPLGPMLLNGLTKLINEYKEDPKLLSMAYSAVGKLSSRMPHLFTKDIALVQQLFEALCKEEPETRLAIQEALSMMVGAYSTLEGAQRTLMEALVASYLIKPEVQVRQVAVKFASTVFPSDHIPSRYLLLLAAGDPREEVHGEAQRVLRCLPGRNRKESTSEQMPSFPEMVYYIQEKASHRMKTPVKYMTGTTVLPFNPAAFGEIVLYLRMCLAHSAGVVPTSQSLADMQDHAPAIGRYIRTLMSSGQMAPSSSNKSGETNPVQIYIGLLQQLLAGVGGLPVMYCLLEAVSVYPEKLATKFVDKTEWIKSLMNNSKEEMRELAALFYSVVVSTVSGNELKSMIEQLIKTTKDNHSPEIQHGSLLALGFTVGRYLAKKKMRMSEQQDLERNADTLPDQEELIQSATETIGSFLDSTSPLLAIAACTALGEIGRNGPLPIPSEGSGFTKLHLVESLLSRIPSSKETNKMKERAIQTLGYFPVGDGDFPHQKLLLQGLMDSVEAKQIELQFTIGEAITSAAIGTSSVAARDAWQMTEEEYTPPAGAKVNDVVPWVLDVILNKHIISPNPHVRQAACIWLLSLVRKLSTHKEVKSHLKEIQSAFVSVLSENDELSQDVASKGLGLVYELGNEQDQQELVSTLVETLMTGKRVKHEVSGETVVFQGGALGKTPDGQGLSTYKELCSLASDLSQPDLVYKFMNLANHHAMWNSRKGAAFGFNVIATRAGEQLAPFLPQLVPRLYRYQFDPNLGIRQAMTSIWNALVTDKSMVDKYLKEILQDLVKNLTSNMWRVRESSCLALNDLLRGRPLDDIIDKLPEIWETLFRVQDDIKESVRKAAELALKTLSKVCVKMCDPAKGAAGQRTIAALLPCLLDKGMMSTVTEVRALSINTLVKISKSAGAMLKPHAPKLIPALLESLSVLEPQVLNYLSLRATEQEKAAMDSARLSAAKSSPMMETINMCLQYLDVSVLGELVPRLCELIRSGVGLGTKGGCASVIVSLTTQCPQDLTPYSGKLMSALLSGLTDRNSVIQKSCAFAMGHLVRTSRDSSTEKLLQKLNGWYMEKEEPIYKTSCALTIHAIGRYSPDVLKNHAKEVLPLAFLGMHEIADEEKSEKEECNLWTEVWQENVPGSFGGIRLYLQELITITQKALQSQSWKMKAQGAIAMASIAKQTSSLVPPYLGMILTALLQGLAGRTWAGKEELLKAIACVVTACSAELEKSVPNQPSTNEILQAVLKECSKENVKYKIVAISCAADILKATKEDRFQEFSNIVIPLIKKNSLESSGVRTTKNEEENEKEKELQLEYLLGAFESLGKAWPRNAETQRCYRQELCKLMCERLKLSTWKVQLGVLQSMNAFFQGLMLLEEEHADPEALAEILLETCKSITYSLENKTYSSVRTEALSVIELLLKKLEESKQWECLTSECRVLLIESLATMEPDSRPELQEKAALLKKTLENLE
# UniProt Q8WVE0: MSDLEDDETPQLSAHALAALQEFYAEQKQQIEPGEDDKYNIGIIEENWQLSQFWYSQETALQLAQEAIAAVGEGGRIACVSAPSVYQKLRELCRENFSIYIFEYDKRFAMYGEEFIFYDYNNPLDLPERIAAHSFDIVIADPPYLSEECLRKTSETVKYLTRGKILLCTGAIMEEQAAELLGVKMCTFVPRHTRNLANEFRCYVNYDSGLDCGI
# Compound: CC1Cc2ccccc2N1C(=O)C1CCCN(C1)C(=O)CCl (mixture of isomers) [TRIM25 ligand 11 (diastereomer mixture)]
# Experiment: probe-labelled cysteine peptide fold change vs DMSO (competition) (log2 fold change); higher = less target engagement (more negative = stronger competition)
# Conditions: THP-1, incubation time: 4 h
# 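Also: competitive chemoproteomic profiling in live THP-1 cells with an iodoacetamide desthiobiotin (IA-DTB) probe, comparing probe-labelled peptide intensities in compound-treated cells against DMSO-treated controls.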
Target,probe-labelled cysteine peptide fold change (10 µM),probe-labelled cysteine peptide fold change (50 µM)
EEF2_P13639_290_TFCQLILDPIFK (UniProt P13639),-0.105,-0.104
EIF2S1_P05198_6_PGLSCR (UniProt P05198),-0.0924,0.0162
EFTUD2_Q15029_166_RYDQDLCYTDILFTEQER (UniProt Q15029),-0.108,-0.0699
EFTUD2_Q15029_256_LAVTVCINK (UniProt Q15029),-0.0606,-0.0059
EEF2_P13639_591_ETVSEESNVLCLSK (UniProt P13639),-0.101,-0.265
EDC4_Q6P2E9_4_ASCASIDIEDATQHLR (UniProt Q6P2E9),-0.0253,0.137
EIF2D_P41214_301_ADLPLLTSTFLGSHMFSCCPEGR (UniProt P41214),0.0735,-0.0234
ECI2_O75521_282_ATFHTPFSHLGQSPEGCSSYTFPK (UniProt O75521),0.307,0.137
EHMT1_Q9H9B1_627_VNNASYCPHCGEESSK (UniProt Q9H9B1),0.0768,0.0907
EHMT2_Q96KQ7_754_EEDGSTCLHHAAK (UniProt Q96KQ7),0.0446,0.0523
ECPAS_Q5VYK3_1183_ESSCLALNDLLR (UniProt Q5VYK3),-0.109,0.226
EHMT2_Q96KQ7_481_VALMVLCETHR (UniProt Q96KQ7),-0.0165,-0.0518
EEF1AKMT1_Q8WVE0_79_IACVSAPSVYQK (UniProt Q8WVE0),0.205,-0.00479
ECPAS_Q5VYK3_1364_LCELIR (UniProt Q5VYK3),0.0253,0.152
EIF2D_P41214_442_LDPILCDCILEK (UniProt P41214),0.0414,0.0783

# Rewritten with bars between the fields: entries from further up.
Target | probe-labelled cysteine peptide fold change (10 µM) | probe-labelled cysteine peptide fold change (50 µM)
EFTUD2_Q15029_256_LAVTVCINK (UniProt Q15029) | -0.0606 | -0.0059
EIF2D_P41214_442_LDPILCDCILEK (UniProt P41214) | 0.0414 | 0.0783
